One molecule from publication doi:10.1101/2021.02.25.432796 can be followed below.

Sequences of proteins named here, by UniProt entry; tags and fusion partners are left off. Residues count along the entry.
UniProt Q13231, residues 22-466: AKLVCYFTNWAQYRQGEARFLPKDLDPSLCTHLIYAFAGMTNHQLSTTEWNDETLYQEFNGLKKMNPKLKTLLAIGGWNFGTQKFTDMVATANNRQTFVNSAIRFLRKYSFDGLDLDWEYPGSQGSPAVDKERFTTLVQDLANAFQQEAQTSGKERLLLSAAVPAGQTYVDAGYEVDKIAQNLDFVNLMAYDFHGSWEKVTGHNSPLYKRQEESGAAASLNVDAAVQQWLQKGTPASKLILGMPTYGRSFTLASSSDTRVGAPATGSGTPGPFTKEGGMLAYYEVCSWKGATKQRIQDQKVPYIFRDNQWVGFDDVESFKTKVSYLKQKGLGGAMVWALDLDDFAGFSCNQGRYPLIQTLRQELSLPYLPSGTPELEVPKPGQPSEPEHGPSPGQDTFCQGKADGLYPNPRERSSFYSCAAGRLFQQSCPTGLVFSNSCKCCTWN

No constants are given. Whether binding was seen depends on the method and setting. In cells and extracts the contact can be indirect. Some results given as binding are weak or reduced against the parent protein; the word gives no strength.

The experiment has as its target Chitinase 1 (CHIT1), human (human) (UniProt Q13231). Nature of the experiment: co-IP.

B1: Transforming growth factor beta associated protein 1 (TGFBRAP1) (protein, UniProt Q8WUH2 1-860)
chain: MMSIKAFTLVSAVERELLMGDKERVNIECVECCGRDLYVGTNDCFVYHFLLEERPVPAGPATFTATKQLQRHLGFKKPVNELRAASALNRLLVLCDNSISLVNMLNLEPVPSGARIKGAATFALNENPVSGDPFCVEVCIISVKRRTIQMFLVYEDRVQIVKEVSTAEQPLAVAVDGHFLCLALTTQYIIHNYSTGVSQDLFPYCSEERPPIVKRIGRQEFLLAGPGGLGMFATVAGISQRAPVHWSENVIGAAVSFPYVIALDDEFITVHSMLDQQQKQTLPFKEGHILQDFEGRVIVATSKGVYILVPLPLEKQIQDLLASRRVEEALVLAKGARRNIPKEKFQVMYRRILQQAGFIQFAQLQFLEAKELFRSGQLDVRELISLYPFLLPTSSSFTRSHPPLHEYADLNQLTQGDQEKMAKCKRFLMSYLNEVRSTEVANGYKEDIDTALLKLYAEADHDSLLDLLVTENFCLLTDSAAWLEKHKKYFALGLLYHYNNQDAAAVQLWVNIVNGDVQDSTRSDLYEYIVDFLTYCLDEELVWAYADWVLQKSEEVGVQVFTKRPLDEQQKNSFNPDDIINCLKKYPKALVKYLEHLVIDKRLQKEEYHTHLAVLYLEEVLLQRASASGKGAEATETQAKLRRLLQKSDLYRVHFLLERLQGAGLPMESAILHGKLGEHEKALHILVHELQDFAAAEDYCLWCSEGRDPPHRQQLFHTLLAIYLHAGPTAHELAVAAVDLLNRHATEFDAAQVLQMLPDTWSVQLLCPFLMGAMRDSIHARRTMQVALGLARSENLIYTYDKMKLKGSSIQLSDKKLCQICQNPFCEPVFVRYPNGGLVHTHCAASRHTNPSSSSPGTRT
As for B1, the binding result is recorded as “binds”.
